From publication PMC6954021
No constants are given. Whether binding was seen depends on the method and setting. Binding seen in cells or lysates may run through a third protein. Some binding calls cover weakened binding; strength is not graded here. For some assays here: Tags and fused reporters may be left off the sequences shown.

Chains of the proteins cited; added tags and fusions are not shown.
UniProt O74456: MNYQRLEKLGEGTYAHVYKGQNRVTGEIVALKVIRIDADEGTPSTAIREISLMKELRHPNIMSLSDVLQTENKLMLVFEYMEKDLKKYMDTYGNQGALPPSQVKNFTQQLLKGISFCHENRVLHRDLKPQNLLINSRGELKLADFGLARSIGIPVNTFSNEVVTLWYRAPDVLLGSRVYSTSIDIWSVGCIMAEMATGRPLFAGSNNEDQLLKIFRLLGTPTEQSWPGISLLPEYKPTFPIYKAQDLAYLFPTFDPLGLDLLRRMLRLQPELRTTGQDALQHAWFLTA

T1: Psl1-GFP (S. pombe) (UniProt O42979)
T1 sequence: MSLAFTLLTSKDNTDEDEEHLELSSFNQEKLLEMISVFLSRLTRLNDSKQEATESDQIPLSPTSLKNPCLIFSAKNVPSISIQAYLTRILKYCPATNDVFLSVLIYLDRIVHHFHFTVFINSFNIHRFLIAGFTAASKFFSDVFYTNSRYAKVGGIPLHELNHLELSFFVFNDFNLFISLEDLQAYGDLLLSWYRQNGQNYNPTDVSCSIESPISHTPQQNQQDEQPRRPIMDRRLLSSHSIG


Experiments:
Pef1 (S. pombe) = Pef1 (S. pombe) (UniProt O74456); assay: co-IP
Psl1-GFP (S. pombe) = target: T1, Psl1-GFP (S. pombe); assay: co-IP

Row | binding (Pef1 (S. pombe)) | binding (Psl1-GFP (S. pombe)) | Molecule
1 | binds | – | cohesin (from UniProt O94383 1-1228; O42649 1-1194; P30776 1-628) (complex)
2 | – | binds | Psm1 (protein, UniProt O94383 1-1228) MGRLLRLEVENFKSYRGHQIIGPFEDFTSIIGPNGAGKSNLMDAISFVLGVKSSHLRSTNVKELIYRGKILQRDNTDFTDSSNPTTAYVKLMYELDNGEQREYKRAITPSGATEYKIDEEIVTFSEYCGSLQKENILVRARNFLVFQGDVETIASQSPLELSKLVEQISGSLEYKSEYDKSKDEQDKAVNLSAHSFNKKRGINAELRQYQEQKTEAERYQSQKEKRDSAQLVYLLWKLFHLEKSISSNMAEVTRLKADSIQLIERRDENTKEIEKLKEKEGSIRRNLLAFDRKVRKQEKLIASKRPELISIAEKALESKSNLRKIQRKAAEIEKDYSDQASTLQVLENQLTSLSAAEKEFLKDMQEKEQLKGLRLLPEDKEEYEGLRSEADKLNSNLLFKLQTLNRNIKVTSQSKDSLTSIVGDLESKIKSLHESVSSLDTERADLLAKINEKIESLELEKHDQQKKRLTYSELFHKTQELNEELQSCLQKILEASADRNESKQDAKKREALYALKRIYPEVKGRIIDLCTPTQKKYESAIAAALGKNFDAIVVETQAVAKECIDYIKEQRIGIMTFFPMDTIAASPVNQKFRGTHKGARLAIDVLNFESEYERVMISAVGNTLICDSMTVARDLSYNKRLNAKTVTLEGTVIHKTGLITGGSSNNRSAKHWDDHDFDLLTQTKDRLMHQIGEIEYQKSSCVITESDTVKLHSLESEISLLKDKYTVVSRSVEDKKKEIGHYESLIKEKQPHLSELEMELRNFVKSRDELQIQVEKVEEKIFSGFCKRIGISDIHTYDEIHRTFTQSFTQKQLEFTKQKSLLENRISFEKQRVSDTRLRLERMHKFIEKDQESIDNYEQNREALESEVATAEAELELLKEDFASENSKTEKILLAASEKKLVGKRLVSELTKLSGNITLLESEIDRYVSEWHAILRKCKLEDIDVPLREGSLTSIPIDDVSNSGDITMGEEPSEPVINFEKFGVEVDYDELDEELRNDGSESMASVLQEKLREYSEELDQMSPNLRAIERLETVETRLAKLDEEFAAARKAAKNAKERFNAVKQKRLQKFQAAFSHISEQIDPIYKELTKSPAFPLGGTAYLTLDDLDEPYLGGIKFHAMPPMKRFRDMDQLSGGEKTMAALALLFAIHSYQPSPFFVLDEIDAALDQTNVTKIANYIRQHASSGFQFVVISLKNQLFSKSEALVGIYRDQQENSSRTLSINLEGYVE
